Counter-ions that a name gives are not always drawn. The list shows a part of the results. The calls rarely recur for the same compound in another form.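 Kinases, fused to nanoluciferase, were expressed in K562 cells; luminescence was measured every 4 h from 2 to 18 h as percent of control (DMSO = 100%, positive control = 0%). A time point is decreased if signal falls significantly (2 sigma). Hits were called by the authors by a rule that is not shown; the count of time points alone does not decide it.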
Key:
Assay in all cases: number of time points (of 5) at which kinase-Nluc abundance scored as decreased, DMSO-normalised (count); higher = more persistent destabilization
Conditions in all cases: K562; 2-18 h
[1] = biological target: FLT3 (UniProt P36888)
[2] = biological target: FYN (UniProt P06241)
[3] = biological target: GSK3A (UniProt P49840)
[4] = biological target: HER2 (UniProt P04626)
[5] = biological target: INSRR (UniProt P14616)
[6] = biological target: IRAK3 (UniProt Q9Y616)
[7] = biological target: JAK1 (UniProt P23458)
[8] = biological target: LCK (UniProt P06239)
[9] = biological target: LIMK1 (UniProt P53667)
[10] = biological target: LIMK2 (UniProt P53671)
[11] = biological target: LMTK2 (UniProt Q8IWU2)
[12] = biological target: LYN (UniProt P07948)
[13] = biological target: MAP2K1 (UniProt Q02750)
[14] = biological target: MAP2K2 (UniProt P36507)
[15] = biological target: MAP4K2 (UniProt Q12851)
[16] = biological target: MAPK1 (UniProt P28482)
[17] = biological target: MAPK4 (UniProt P31152)
[18] = biological target: MAPKAPK2 (UniProt P49137)
[19] = biological target: MKNK1 (UniProt Q9BUB5)
[20] = biological target: NTRK2 (UniProt Q16620)

Amino acid sequences for entries named in this document (tags omitted). A change or cut given only in a name is not applied to a line headed by its entry.
UniProt P06241, whole entry, looked up: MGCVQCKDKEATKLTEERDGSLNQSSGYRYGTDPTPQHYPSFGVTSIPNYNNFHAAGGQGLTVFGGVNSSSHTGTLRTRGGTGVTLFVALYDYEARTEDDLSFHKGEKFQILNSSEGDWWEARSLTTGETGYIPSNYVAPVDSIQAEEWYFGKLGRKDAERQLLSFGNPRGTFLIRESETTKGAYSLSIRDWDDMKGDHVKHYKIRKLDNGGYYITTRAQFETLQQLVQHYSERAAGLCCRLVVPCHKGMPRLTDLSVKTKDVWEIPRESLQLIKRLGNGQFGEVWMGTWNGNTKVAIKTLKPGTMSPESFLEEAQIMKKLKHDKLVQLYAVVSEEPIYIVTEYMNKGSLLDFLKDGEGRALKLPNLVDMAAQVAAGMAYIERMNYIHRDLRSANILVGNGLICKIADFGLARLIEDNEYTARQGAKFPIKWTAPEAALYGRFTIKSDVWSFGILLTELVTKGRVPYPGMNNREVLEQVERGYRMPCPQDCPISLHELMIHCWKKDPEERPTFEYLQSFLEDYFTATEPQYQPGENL
UniProt P14616: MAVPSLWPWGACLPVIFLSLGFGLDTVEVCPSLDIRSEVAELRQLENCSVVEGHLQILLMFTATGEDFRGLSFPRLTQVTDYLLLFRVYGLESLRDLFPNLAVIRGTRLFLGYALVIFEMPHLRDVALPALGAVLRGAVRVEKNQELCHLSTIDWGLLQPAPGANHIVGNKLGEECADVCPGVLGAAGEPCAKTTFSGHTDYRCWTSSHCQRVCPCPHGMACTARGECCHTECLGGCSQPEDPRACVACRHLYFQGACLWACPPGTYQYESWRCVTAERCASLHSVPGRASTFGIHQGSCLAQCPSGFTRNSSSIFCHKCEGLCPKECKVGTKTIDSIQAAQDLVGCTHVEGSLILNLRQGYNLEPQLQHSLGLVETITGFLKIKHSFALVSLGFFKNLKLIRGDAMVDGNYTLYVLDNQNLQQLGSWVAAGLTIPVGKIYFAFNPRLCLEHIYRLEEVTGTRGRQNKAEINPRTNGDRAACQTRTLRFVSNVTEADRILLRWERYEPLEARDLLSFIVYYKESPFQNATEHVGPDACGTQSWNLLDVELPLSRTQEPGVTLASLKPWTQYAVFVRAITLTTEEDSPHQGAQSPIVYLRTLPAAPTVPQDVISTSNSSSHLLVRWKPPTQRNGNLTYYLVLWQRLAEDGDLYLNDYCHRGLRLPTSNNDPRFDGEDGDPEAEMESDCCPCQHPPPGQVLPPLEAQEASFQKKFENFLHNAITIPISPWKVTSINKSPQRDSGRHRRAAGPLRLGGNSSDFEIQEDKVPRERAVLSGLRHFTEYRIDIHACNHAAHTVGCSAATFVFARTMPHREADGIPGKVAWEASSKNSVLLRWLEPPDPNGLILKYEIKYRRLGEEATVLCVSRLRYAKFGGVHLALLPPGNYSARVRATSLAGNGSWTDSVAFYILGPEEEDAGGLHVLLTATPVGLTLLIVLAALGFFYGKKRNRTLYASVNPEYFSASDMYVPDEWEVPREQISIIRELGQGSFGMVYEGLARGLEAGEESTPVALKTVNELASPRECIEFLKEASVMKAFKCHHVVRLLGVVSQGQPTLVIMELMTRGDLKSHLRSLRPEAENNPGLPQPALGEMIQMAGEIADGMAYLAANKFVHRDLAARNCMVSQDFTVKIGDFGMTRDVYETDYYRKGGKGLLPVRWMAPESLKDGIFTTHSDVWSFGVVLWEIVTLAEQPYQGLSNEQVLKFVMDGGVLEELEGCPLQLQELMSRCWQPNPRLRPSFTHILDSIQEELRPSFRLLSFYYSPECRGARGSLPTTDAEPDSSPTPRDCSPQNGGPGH
UniProt Q9Y616: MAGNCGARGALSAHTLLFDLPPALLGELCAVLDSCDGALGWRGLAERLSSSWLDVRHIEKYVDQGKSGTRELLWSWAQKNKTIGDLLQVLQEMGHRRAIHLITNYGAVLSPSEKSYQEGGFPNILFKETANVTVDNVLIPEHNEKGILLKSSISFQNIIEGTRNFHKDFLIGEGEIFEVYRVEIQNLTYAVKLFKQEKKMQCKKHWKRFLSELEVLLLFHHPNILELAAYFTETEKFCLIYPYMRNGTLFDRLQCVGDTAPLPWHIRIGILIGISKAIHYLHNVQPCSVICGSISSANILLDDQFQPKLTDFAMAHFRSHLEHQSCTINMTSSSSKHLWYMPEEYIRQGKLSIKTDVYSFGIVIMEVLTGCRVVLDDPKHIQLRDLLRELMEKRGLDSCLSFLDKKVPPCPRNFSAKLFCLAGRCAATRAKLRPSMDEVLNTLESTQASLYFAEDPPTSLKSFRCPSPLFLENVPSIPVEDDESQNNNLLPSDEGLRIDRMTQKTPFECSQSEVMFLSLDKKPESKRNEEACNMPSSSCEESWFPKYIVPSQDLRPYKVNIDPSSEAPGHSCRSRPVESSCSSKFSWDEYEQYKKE
UniProt P23458: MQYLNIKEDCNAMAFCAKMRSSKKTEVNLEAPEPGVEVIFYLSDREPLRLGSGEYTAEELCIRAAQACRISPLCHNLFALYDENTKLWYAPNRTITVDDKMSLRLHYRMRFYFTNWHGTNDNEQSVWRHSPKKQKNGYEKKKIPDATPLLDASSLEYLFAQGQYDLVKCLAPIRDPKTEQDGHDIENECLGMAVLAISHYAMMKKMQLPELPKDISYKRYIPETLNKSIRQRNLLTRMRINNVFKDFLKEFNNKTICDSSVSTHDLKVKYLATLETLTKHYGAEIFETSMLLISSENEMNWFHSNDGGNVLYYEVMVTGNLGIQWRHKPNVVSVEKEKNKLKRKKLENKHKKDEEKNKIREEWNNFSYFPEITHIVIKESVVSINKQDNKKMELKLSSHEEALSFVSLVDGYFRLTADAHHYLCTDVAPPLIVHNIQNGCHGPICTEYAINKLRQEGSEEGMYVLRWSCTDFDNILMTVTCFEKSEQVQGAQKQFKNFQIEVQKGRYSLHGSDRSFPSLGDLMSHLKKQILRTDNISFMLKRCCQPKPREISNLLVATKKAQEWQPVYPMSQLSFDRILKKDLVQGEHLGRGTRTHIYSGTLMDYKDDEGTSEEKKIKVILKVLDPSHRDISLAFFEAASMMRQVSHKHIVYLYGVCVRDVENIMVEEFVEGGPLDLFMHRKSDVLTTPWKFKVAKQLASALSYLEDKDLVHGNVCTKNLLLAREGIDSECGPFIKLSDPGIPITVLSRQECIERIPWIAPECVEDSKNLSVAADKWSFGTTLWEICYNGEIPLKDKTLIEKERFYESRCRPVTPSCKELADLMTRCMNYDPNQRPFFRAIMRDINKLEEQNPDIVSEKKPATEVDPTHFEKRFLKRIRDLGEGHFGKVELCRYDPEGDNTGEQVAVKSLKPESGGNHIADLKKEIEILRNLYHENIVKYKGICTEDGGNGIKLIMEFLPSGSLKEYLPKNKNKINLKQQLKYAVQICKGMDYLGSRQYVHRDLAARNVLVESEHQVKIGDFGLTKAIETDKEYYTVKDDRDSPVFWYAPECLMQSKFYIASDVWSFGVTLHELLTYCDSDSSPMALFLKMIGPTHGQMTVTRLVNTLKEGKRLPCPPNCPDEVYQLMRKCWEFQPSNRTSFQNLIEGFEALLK
UniProt P53671: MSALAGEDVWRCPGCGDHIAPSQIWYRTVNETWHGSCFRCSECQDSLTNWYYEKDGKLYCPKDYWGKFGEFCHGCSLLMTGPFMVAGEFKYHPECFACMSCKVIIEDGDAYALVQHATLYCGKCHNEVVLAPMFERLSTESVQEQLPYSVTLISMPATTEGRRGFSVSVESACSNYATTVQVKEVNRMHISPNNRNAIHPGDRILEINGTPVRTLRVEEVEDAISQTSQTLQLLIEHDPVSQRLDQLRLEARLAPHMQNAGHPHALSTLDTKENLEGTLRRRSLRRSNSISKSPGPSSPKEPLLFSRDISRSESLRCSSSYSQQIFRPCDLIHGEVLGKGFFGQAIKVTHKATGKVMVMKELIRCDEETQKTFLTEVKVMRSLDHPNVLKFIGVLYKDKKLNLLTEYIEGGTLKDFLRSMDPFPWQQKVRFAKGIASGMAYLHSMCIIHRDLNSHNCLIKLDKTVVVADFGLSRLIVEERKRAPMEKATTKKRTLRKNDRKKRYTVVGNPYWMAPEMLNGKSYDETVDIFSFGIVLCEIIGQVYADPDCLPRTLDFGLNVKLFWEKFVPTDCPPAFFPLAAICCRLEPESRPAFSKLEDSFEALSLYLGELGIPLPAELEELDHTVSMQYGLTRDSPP
UniProt P07948: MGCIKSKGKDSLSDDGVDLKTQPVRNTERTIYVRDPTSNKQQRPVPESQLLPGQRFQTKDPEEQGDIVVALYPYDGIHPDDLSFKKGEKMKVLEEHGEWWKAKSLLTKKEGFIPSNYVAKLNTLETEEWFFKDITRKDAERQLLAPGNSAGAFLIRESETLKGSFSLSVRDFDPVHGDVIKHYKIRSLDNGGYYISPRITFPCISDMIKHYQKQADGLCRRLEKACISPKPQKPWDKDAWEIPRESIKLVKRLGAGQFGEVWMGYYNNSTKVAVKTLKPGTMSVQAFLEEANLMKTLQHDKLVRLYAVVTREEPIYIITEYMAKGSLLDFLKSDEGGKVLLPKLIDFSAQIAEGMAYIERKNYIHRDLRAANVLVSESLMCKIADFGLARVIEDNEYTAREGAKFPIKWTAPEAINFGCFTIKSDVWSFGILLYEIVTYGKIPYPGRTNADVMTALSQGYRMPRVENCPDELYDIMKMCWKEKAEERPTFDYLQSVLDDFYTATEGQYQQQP
UniProt Q12851: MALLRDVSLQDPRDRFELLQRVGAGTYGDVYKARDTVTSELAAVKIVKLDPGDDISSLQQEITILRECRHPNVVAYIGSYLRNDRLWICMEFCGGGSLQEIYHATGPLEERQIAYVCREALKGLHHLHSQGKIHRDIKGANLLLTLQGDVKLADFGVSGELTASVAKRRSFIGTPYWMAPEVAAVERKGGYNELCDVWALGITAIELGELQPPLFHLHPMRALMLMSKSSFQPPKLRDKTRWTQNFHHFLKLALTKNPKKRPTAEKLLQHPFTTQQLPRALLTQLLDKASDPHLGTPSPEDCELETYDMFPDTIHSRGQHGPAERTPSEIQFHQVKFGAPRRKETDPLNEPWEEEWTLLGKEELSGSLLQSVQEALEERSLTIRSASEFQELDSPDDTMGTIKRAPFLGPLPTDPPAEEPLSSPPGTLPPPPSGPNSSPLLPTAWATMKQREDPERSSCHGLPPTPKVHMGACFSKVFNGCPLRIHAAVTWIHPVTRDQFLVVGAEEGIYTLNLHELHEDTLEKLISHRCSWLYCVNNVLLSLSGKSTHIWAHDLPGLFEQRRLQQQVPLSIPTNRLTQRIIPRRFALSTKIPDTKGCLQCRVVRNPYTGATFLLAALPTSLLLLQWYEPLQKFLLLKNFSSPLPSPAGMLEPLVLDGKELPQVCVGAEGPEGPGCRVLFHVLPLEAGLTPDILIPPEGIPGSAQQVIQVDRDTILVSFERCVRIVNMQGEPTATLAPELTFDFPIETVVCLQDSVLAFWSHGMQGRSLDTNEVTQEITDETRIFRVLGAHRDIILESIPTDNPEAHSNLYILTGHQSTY
UniProt P28482, whole entry: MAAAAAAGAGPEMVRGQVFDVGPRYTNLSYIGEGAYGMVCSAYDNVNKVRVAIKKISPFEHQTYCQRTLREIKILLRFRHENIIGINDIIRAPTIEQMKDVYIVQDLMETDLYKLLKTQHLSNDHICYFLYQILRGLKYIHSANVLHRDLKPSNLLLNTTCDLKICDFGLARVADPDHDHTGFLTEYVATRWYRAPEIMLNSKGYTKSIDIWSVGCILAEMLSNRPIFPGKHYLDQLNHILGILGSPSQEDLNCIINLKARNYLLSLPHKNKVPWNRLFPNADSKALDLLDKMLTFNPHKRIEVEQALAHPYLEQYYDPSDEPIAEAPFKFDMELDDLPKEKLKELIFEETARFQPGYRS
UniProt P31152, whole entry: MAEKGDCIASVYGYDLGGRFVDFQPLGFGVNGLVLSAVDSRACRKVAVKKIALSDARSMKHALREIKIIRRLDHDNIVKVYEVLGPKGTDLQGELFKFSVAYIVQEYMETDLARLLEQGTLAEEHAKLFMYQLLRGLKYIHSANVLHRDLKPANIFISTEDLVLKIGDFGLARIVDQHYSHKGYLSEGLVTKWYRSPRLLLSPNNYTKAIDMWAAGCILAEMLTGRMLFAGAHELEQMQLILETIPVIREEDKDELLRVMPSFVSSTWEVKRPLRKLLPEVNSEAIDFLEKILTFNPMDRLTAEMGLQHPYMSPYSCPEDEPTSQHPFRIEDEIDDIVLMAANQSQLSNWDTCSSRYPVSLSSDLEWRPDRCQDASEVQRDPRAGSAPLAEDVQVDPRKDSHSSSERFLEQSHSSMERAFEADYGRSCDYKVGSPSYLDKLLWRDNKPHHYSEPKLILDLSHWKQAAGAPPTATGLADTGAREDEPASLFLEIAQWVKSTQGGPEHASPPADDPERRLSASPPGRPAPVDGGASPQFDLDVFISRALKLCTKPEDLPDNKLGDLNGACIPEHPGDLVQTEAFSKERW

Row | SMILES | number of time points [1] | number of time points [2] | number of time points [3] | number of time points [4] | number of time points [5] | number of time points [6] | number of time points [7] | number of time points [8] | number of time points [9] | number of time points [10] | number of time points [11] | number of time points [12] | number of time points [13] | number of time points [14] | number of time points [15] | number of time points [16] | number of time points [17] | number of time points [18] | number of time points [19] | number of time points [20]
1 | Cc1ccccc1-c1c2nccc(-c3ccc(F)cc3F)c2cc[n+]1[O-] (10 µM) | 0 | 0 | 0 | 0 | 0 | 0 | 0 | 0 | 0 | 0 | 0 | 0 | 0 | 0 | 0 | 0 | 0 | 0 | 0 | 0
2 | COc1ncc(Cl)cc1S(=O)(=O)Nc1ccc(F)c(C#Cc2cnc(N)nc2)c1F (2.5 µM) | 0 | 0 | 0 | 3 | 0 | 0 | 0 | 0 | 0 | 0 | 0 | 0 | 0 | 0 | 0 | 0 | 0 | 0 | 0 | 0
3 | c1cncc(CN2CCC(n3ncc4c(N5CCOCC5)nc(-c5ccc6[nH]ccc6c5)nc43)CC2)c1 (10 µM) | 0 | 4 | 0 | 2 | 4 | 2 | 4 | 0 | 5 | 4 | 0 | 1 | 0 | 0 | 0 | 0 | 0 | 0 | 1 | 3
4 | CCOc1ccc2cc(-c3nn(CC4CCN(C)CC4)c4ncnc(N)c34)ccc2n1 (10 µM) | 0 | 0 | 0 | 0 | 0 | 0 | 0 | 0 | 0 | 0 | 0 | 0 | 0 | 0 | 0 | 0 | 0 | 0 | 0 | 0
5 | Cn1cc(-c2ccc3c(c2)CCN3C(=O)Cc2cccc(C(F)(F)F)c2)c2c(N)ncnc21 (2.5 µM) | 0 | 0 | 0 | 0 | 0 | 0 | 0 | 0 | 0 | 0 | 0 | 0 | 0 | 0 | 0 | 0 | 0 | 0 | 0 | 0
6 | S=C(SSC(=S)N1CCOCC1)N1CCOCC1 (10 µM) | 0 | 3 | 0 | 0 | 0 | 2 | 0 | 0 | 2 | 4 | 3 | 0 | 0 | 0 | 0 | 0 | 0 | 1 | 0 | 0
7 | Oc1cc2c(cc1O)C(Cc1cccc3ccccc13)NCC2 (stereo not given) (10 µM) | 0 | 0 | 0 | 0 | 0 | 0 | 0 | 0 | 0 | 0 | 0 | 0 | 0 | 0 | 0 | 0 | 0 | 0 | 0 | 0
8 | C=CC(=O)Nc1cccc(Nc2nc(Nc3ccc(N4CCN(C(C)=O)CC4)cc3OC)ncc2C(F)(F)F)c1 [Rociletinib] (10 µM) | 0 | 0 | 0 | 4 | 1 | 0 | 1 | 0 | 0 | 0 | 0 | 0 | 0 | 0 | 0 | 0 | 0 | 0 | 0 | 0
9 | Cn1cnc(Cn2ccc3ccc(CNCc4[nH]c5ccccc5c4[C@H]4NC(=O)c5ccc(O)cc54)cc32)c1 (10 µM) | 0 | 0 | 0 | 0 | 0 | 0 | 0 | 0 | 0 | 0 | 0 | 0 | 0 | 0 | 0 | 0 | 0 | 0 | 0 | 0
10 | NS(=O)(=O)c1ccc(-n2nc(C(F)(F)F)cc2-c2ccc(Cl)cc2)cc1 (10 µM) | 0 | 0 | 0 | 0 | 0 | 0 | 0 | 0 | 0 | 0 | 0 | 0 | 0 | 0 | 0 | 0 | 0 | 0 | 0 | 0
11 | O=Nc1c(-c2c(O)[nH]c3ccc(I)cc23)[nH]c2ccccc12 [5-Iodo-indirubin-3'-monoxime] (10 µM) | 0 | 0 | 2 | 0 | 0 | 0 | 0 | 0 | 0 | 0 | 0 | 0 | 0 | 0 | 0 | 0 | 0 | 0 | 0 | 0
12 | COc1cc(OC2CCN(C)CC2)ccc1Nc1ncc2c(n1)n(C1CCCC1)c(=O)n2C (10 µM) | 0 | 0 | 0 | 0 | 0 | 0 | 0 | 0 | 0 | 0 | 0 | 0 | 0 | 0 | 0 | 0 | 0 | 0 | 0 | 0
13 | CNC(=O)c1ccc(C)c(-n2c(C)cc(OCc3ccc(F)cc3F)c(Br)c2=O)c1 (10 µM) | 0 | 0 | 0 | 0 | 0 | 0 | 0 | 0 | 0 | 0 | 0 | 0 | 0 | 0 | 0 | 0 | 0 | 0 | 0 | 0
14 | C[C@@H]1COCCN1c1cc(C2([S@@](C)(=N)=O)CC2)nc(-c2ccnc3[nH]ccc23)n1 [(S)-Ceralasertib] (10 µM) | 0 | 0 | 0 | 0 | 0 | 0 | 0 | 0 | 0 | 0 | 0 | 0 | 0 | 0 | 0 | 0 | 0 | 0 | 0 | 0
15 | CN(C)C(=O)Cn1cc(-c2ccc(-c3cncc4ccccc34)cc2)cn1 (10 µM) | 0 | 0 | 0 | 0 | 0 | 0 | 0 | 0 | 0 | 0 | 0 | 0 | 0 | 0 | 0 | 0 | 0 | 0 | 0 | 0
16 | Cc1cc(O)c2c(c1)C(=O)c1cc(O)cc(O)c1C2=O [Emodin] (10 µM) | 0 | 0 | 0 | 0 | 0 | 0 | 0 | 0 | 0 | 0 | 0 | 0 | 0 | 0 | 0 | 0 | 0 | 0 | 0 | 0
17 | CC(=O)NC1CC(n2cnc(NC(=O)Cc3ccc4ccccc4c3)c2)C1 (stereo not given) (10 µM) | 0 | 0 | 0 | 0 | 0 | 0 | 0 | 0 | 0 | 0 | 0 | 0 | 0 | 0 | 0 | 0 | 0 | 0 | 0 | 0
18 | Cn1nccc1Nc1nccc(-c2ccn([C@H](CO)c3ccc(Cl)c(F)c3)c(=O)c2)n1 [Ravoxertinib] (10 µM) | 0 | 0 | 0 | 0 | 0 | 0 | 0 | 0 | 0 | 0 | 0 | 0 | 0 | 0 | 0 | 0 | 0 | 0 | 0 | 0
19 | O=C1Nc2ccc(C(=O)c3ccco3)cc2C1=Cc1cc(Cl)c(O)c(Cl)c1 (2.5 µM) | 0 | 0 | 0 | 0 | 0 | 0 | 0 | 0 | 0 | 0 | 0 | 0 | 0 | 0 | 0 | 0 | 0 | 0 | 0 | 0
20 | CCS(=O)(=O)c1ncc(Cl)c(C(=O)N(Cc2ccc(Cl)cc2)Cc2ccco2)n1 (2.5 µM) | 0 | 5 | 0 | 0 | 0 | 3 | 0 | 0 | 0 | 0 | 0 | 0 | 0 | 0 | 0 | 0 | 0 | 0 | 0 | 0
21 | Cc1ccccc1-n1c([C@H](C)Nc2nc(N)nc3nc[nH]c23)nc2cccc(C)c2c1=O [CAL-130 (Hydrochloride)] (10 µM) | 0 | 0 | 0 | 0 | 0 | 0 | 0 | 0 | 0 | 0 | 0 | 0 | 0 | 0 | 0 | 0 | 0 | 0 | 0 | 0
22 | CCOC(=O)N1CCN(C(=O)[C@H](Cc2cccc(C(=N)N)c2)NS(=O)(=O)c2c(C(C)C)cc(C(C)C)cc2C(C)C)CC1 (10 µM) | 0 | 0 | 0 | 0 | 0 | 0 | 0 | 0 | 0 | 0 | 0 | 0 | 0 | 0 | 0 | 0 | 0 | 0 | 0 | 0
23 | Cn1cc(-c2ccc3nnc(Sc4ccc5ncccc5c4)n3n2)cn1 (10 µM) | 0 | 0 | 0 | 0 | 0 | 0 | 0 | 0 | 0 | 0 | 0 | 0 | 0 | 0 | 0 | 0 | 0 | 0 | 0 | 0
24 | CCCCCCCCCCCCC/C=C/[C@@H](O)[C@@H](N)CO [D-erythro-Sphingosine] (2.5 µM) | 0 | 0 | 0 | 0 | 0 | 0 | 0 | 0 | 0 | 0 | 0 | 0 | 0 | 0 | 0 | 0 | 0 | 0 | 0 | 0

Rewritten tab-delimited: entries from further up.
Row	SMILES	number of time points [1]	number of time points [2]	number of time points [3]	number of time points [4]	number of time points [5]	number of time points [6]	number of time points [7]	number of time points [8]	number of time points [9]	number of time points [10]	number of time points [11]	number of time points [12]	number of time points [13]	number of time points [14]	number of time points [15]	number of time points [16]	number of time points [17]	number of time points [18]	number of time points [19]	number of time points [20]
7	Oc1cc2c(cc1O)C(Cc1cccc3ccccc13)NCC2 (stereo not given) (10 µM)	0	0	0	0	0	0	0	0	0	0	0	0	0	0	0	0	0	0	0	0
8	C=CC(=O)Nc1cccc(Nc2nc(Nc3ccc(N4CCN(C(C)=O)CC4)cc3OC)ncc2C(F)(F)F)c1 [Rociletinib] (10 µM)	0	0	0	4	1	0	1	0	0	0	0	0	0	0	0	0	0	0	0	0
9	Cn1cnc(Cn2ccc3ccc(CNCc4[nH]c5ccccc5c4[C@H]4NC(=O)c5ccc(O)cc54)cc32)c1 (10 µM)	0	0	0	0	0	0	0	0	0	0	0	0	0	0	0	0	0	0	0	0
10	NS(=O)(=O)c1ccc(-n2nc(C(F)(F)F)cc2-c2ccc(Cl)cc2)cc1 (10 µM)	0	0	0	0	0	0	0	0	0	0	0	0	0	0	0	0	0	0	0	0
11	O=Nc1c(-c2c(O)[nH]c3ccc(I)cc23)[nH]c2ccccc12 [5-Iodo-indirubin-3'-monoxime] (10 µM)	0	0	2	0	0	0	0	0	0	0	0	0	0	0	0	0	0	0	0	0
12	COc1cc(OC2CCN(C)CC2)ccc1Nc1ncc2c(n1)n(C1CCCC1)c(=O)n2C (10 µM)	0	0	0	0	0	0	0	0	0	0	0	0	0	0	0	0	0	0	0	0
13	CNC(=O)c1ccc(C)c(-n2c(C)cc(OCc3ccc(F)cc3F)c(Br)c2=O)c1 (10 µM)	0	0	0	0	0	0	0	0	0	0	0	0	0	0	0	0	0	0	0	0

— the supplement of paper PMC12823440, “Inhibitors supercharge kinase turnover through native proteolytic circuits” (Nature, 2025)
